Experimental data reported in paper PMC11251182, “Tubular insulin-induced gene 1 deficiency promotes NAD^+ consumption and exacerbates kidney fibrosis” (EMBO Molecular Medicine, 2024).
These are yes or no findings as the source states them, for the method shown. In cells and extracts the contact can be indirect. Some entries that bind do so weakly or less than the wild type.

Chains of the proteins cited; added tags and fusions are not shown. Residues count along the entry.
UniProt Q9EQY0, residues 21-977: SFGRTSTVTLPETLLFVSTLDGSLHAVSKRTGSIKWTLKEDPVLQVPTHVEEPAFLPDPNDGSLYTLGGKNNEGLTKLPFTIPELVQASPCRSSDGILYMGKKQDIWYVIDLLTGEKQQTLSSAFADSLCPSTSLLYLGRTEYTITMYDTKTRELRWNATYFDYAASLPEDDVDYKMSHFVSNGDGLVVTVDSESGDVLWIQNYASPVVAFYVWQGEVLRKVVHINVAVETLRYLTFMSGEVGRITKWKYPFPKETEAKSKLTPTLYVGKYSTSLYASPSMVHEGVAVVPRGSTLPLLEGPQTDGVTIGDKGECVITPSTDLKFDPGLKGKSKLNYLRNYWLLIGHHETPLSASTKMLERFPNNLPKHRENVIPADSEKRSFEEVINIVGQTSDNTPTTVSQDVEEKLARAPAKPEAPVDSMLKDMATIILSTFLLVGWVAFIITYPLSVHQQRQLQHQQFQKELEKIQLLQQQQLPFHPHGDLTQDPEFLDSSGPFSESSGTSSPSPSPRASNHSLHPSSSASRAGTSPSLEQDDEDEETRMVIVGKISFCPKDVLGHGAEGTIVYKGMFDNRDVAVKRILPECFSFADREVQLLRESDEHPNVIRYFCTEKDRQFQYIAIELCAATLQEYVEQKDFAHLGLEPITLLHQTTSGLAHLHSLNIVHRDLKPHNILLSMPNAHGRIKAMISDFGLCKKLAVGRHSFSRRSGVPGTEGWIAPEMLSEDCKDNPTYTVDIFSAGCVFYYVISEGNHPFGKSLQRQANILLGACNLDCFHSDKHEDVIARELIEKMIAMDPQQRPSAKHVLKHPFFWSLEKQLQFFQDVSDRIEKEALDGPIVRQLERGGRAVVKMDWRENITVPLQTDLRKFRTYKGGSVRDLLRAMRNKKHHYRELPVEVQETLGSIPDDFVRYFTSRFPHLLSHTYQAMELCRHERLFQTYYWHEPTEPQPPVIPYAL
UniProt P20029, residues 20-655: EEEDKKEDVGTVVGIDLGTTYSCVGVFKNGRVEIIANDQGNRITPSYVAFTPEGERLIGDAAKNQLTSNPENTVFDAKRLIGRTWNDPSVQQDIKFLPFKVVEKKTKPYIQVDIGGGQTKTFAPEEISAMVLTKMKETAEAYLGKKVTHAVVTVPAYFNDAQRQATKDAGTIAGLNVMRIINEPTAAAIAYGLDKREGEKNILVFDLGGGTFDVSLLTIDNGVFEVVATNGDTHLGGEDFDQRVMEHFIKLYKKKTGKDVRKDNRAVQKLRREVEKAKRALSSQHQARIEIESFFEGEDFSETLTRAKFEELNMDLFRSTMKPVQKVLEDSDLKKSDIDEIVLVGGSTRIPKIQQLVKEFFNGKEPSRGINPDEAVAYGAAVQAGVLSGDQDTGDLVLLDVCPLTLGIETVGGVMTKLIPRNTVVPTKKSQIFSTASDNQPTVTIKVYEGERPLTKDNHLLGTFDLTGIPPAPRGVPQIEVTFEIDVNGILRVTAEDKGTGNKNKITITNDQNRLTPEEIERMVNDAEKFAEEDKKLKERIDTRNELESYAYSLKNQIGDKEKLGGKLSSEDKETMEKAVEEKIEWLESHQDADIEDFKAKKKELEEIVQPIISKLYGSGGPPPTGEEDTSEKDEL

Target: kinase/endoribonuclease inositol-requiring enzyme 1α (IRE1α) (mouse (endogenous in TKPTS)) (UniProt Q9EQY0)
Assay: co-IP; TKPTS cells; Insig1-silenced, Aldh1a1-silenced or NAD+-treated (Fig. 8H-J), and nicardipine-treated cells stimulated by TGF-β1 (Fig. 9N); which protein was precipitated is not told

binding: binds
Substance: ER stress sensor GRP78/BIP (from UniProt P20029 20-655)
